{
  "source": "patent EP0395312B1",
  "about": "“Piperazine derivatives” (JOHN WYETH & BROTHER LIMITED, priority 1989, dated 1990)",
  "system": "α1 sites",
  "assay": "Affinity for α1 sites (procedure of Morrow et al)",
  "format": "binding",
  "conditions": "read-out: Affinity for α1 site IC50",
  "note": "At least one compound was matched to its structure with a doubt left.",
  "data": [
    {"smiles": "CCOC(=O)C(Cc1ccccc1)CN1CCN(c2ccccc2OC)CC1", "note": "(stereo not shown) [Example 29, Ethyl 2-{1-[4-(2-methoxyphenyl)piperazinyl]methyl}-3-phenylpropanoate]", "values": [
      {"measurement": "IC50", "value": 1.14, "unit": "µM"}
    ]}
  ]
}
